Assay results published in patent US20250297019A1.
Results are given in words; binding and its absence hold for the method and conditions named. Some binding calls cover weakened binding; strength is not graded here. For some assays here: Tags and fused reporters may be left off the sequences shown.

Protein sequences, listed by entry. Tags and fused reporters are not part of them. Lines headed by an entry give the natural chain unless they say otherwise; changes in a name come on top. Chains listed by the source or under a name are the forms on record and can include a tag or linker.
UniProt P51685: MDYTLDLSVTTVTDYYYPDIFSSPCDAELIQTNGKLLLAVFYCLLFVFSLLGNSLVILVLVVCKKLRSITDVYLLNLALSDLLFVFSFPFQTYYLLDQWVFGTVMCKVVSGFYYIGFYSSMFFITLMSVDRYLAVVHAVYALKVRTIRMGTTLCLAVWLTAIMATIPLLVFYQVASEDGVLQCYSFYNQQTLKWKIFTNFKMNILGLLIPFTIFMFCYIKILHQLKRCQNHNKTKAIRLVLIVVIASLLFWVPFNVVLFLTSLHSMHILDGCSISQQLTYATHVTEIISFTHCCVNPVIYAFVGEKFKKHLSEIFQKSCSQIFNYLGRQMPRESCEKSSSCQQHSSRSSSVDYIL
human CXCR4, N-terminally FLAG-tagged (P61073, form named): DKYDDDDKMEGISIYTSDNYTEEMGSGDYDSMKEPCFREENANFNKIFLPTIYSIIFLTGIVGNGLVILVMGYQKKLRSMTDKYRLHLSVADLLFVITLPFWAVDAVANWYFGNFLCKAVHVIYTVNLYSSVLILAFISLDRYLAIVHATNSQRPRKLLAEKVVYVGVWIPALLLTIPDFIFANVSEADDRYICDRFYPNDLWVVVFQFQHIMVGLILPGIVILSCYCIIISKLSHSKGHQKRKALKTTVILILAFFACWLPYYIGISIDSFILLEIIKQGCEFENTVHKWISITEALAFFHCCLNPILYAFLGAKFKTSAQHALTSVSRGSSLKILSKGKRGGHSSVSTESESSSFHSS

Columns and labels:
[1] = target: human CCR8, N-terminally FLAG-tagged (human) (UniProt P51685); assay: flow cytometry on transfected HEK293 cells, 5 µg/ml
[2] = target: human CCR8, N-terminally FLAG-tagged (human) (UniProt P51685); assay: flow cytometry on transfected HEK293 cells
[3] = target: human CXCR4, N-terminally FLAG-tagged (human) (UniProt P61073); assay: flow cytometry, HEK293 cells transiently transfected with the N-terminally FLAG-tagged receptor, antibody at 5 ug/ml, AF647 secondary antibody
[4] = target: T1, human CCR4, N-terminally FLAG-tagged (human) (UniProt P51679); assay: as above
T1 sequence: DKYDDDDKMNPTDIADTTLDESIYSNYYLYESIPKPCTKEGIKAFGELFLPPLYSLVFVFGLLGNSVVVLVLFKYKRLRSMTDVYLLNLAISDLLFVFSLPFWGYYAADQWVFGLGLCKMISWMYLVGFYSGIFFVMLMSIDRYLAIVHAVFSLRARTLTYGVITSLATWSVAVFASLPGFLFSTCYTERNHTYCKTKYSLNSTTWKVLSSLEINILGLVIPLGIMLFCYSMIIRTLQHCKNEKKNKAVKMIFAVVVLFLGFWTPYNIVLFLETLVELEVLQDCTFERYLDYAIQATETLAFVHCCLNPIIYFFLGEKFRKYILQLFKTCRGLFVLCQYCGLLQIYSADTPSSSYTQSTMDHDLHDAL

[5] = target: T2, human CCR3, N-terminally FLAG-tagged (human) (UniProt P51677); assay: as above
T2 sequence: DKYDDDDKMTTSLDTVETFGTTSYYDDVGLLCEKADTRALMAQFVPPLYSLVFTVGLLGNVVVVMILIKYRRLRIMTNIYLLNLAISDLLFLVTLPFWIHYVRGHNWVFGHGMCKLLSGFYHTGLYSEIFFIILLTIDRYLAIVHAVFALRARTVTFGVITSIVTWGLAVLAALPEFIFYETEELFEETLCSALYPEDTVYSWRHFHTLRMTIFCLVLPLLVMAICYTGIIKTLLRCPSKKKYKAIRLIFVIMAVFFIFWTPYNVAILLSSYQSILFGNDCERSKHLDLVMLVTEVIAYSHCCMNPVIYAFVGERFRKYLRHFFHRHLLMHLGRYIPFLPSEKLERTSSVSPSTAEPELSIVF

[6] = target: T3, human ACKR4, N-terminally FLAG-tagged (human) (UniProt Q9NPB9); assay: as above
T3 sequence: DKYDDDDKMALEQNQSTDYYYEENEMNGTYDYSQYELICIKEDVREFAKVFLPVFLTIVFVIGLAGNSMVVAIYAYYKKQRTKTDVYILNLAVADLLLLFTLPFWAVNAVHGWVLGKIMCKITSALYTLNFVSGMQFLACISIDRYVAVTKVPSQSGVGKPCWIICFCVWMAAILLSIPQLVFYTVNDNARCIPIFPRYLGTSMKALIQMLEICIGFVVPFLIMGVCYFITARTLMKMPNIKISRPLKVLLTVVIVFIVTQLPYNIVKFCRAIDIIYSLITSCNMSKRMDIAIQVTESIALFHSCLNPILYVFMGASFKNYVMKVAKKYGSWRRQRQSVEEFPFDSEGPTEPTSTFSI

[7] = target: human CCR5, N-terminally FLAG-tagged (human) (UniProt P51681); assay: as above
[8] = target: human CCR8, N-terminally FLAG-tagged (human) (UniProt P51685); assay: as above
[9] = target: T4, human ACKR2, N-terminally FLAG-tagged (human) (UniProt O00590); assay: as above
T4 sequence: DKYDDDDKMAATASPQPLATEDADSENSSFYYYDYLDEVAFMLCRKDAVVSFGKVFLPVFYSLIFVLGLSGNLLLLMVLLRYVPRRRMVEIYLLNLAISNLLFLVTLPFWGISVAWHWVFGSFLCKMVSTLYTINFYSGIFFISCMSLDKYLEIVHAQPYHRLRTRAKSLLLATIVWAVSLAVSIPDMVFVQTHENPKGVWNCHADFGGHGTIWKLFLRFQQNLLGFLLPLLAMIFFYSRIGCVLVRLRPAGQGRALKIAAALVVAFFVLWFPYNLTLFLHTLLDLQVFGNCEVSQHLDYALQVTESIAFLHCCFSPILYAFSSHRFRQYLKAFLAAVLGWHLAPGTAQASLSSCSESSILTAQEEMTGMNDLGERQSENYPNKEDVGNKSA

Measured: binding

B1: hu.Ab5.H1L1 (antibody, human IgG1, V domains shown)
VH: EQQLLESGGGLVQPGGSLRLSCAVSGIDLSTYAMGWVRQAPGKGLEWIGLIHRSGRTYYATWAKGRFTISKDSSKTTVYLQMNSLRAEDTAVYFCTRSYPDYSATASIWGPGTTVTVSS
VL: DIQVTQSPSSLSASVGDRVTITCQASENIANALAWYQQKPGKPPKFLIYGASNLASGVPSRFSGSGSGTDFTFTISSLQPEDIATYYCQQAYYGNSFVEGTFGGGTKVEIK
binds: [1] | [2]

B2: hu.Ab3.H1L1 (antibody, human IgG1, kappa, V domains shown)
VH: EQQLVESGGGLVQPGGSLRLSCAVSGFSLSSYAMSWVRQAPGKGLEWIGVISASGRIIYATWAKGRFTISKDSAKTSVYLQMNSLRDEDTAVYFCARGVPSYSLVMSDWGPGTTVTVSS
VL: EPVMTQSPATLSVSPGERATLSCQASQSISNALAWYQQKPGQPPRLLIYEVSKVASGVPARFSGSGSGTEFTLTISSLQSEDFAVYYCQSAYYGNSYVWGAFGQGTKVEIKR
binds: [3] | [4] | [5] | [6] | [7] | [8] | [9]

B3: hu.Ab4.H1L1 (antibody, human IgG1, V domains shown)
VH: EQQLLESGGGLVQPGGSLRLSCAVSGFSLSNYAMIWVRQAPGKGLEWVGTISLGGYTYYANWAKGRFTISKDSSKTTVYLQMNSLRAEDTAVYFCARARWSTDSAIYTYAFDPWGPGTLVTVSS
VL: DYQMTQSPSSLSASVGDRVTITCQASQSISSYLSWYQQKPGKRPKLLIYKASTLASGVPSRFSGSGSGTDFTLTISSLQPEDFATYYCQQGYTSSNIDNIFGGGTKVEIK
binds: [1] | [2]
